Laboratory results: PubChem BioAssay AID743121 (NCATS, 2013)

- Assay: 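Genes whose silencing strengthens cell killing by camptothecin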 (primary screen)
- System: MDA-MB-231 cells, a human breast cancer line
- Reagent: single siRNA against human genes, 20 nM siRNA (0.8 pmol per well)
- Timing: 120 h (drug added 48 h after transfection, read 72 h later)
- Challenge: camptothecin 20 nM (about EC30) for 72 h; vehicle 0.1% DMSO in parallel plates
- Measured: 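CellTiter-Glo ATP signal, scaled to control siRNA as percent viability; sensitisation given as log2 of untreated divided by camptothecin-treated viability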
- Scale: log2 vehicle/camptothecin viability: higher = stronger sensitisation to camptothecin
- Hit rule: 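Active genes have an RSA gene-level p-value below 0.001, computed from the ratios of their separate siRNAs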
Here is a random part of about 26,000 reagents tested. 167 of them (0.63%) were called active. 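Calls are per gene from RSA p-values that are not deposited; an individual active-marked siRNA can sensitise only weakly.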 A number with no mark means an inactive call. The numbers tell different reagents against one gene apart. Further read-outs or replicates are left out here. No sequences are given here.

log2 vehicle/camptothecin viability, by target gene and reagent
COG2 (component of oligomeric golgi complex 2): #1 1.75; #2 0.437; #3 0.161
MINPP1 (multiple inositol-polyphosphate phosphatase 1): #1 -0.241; #2 0.138; #3 -0.265; #4 -0.0263
ANKRD60 (ankyrin repeat domain 60): #1 -0.29; #2 -0.0995; #3 -0.0393
RAF1 (Raf-1 proto-oncogene, serine/threonine kinase): #1 -0.228; #2 -0.0461; #3 0.273; #4 0.131
CACNA1F (calcium voltage-gated channel subunit alpha1 F): #1 -0.325; #2 -0.376; #3 -0.513; #4 0.586
VN1R10P (vomeronasal 1 receptor 10, pseudogene): #1 0.897; #2 0.103; #3 0.345; #4 -0.213
LMTK2 (lemur tail kinase 2): #1 0.259; #2 -0.335; #3 -0.113; #4 0.12
TNNI3 (troponin I3, cardiac type): #1 -0.199; #2 -0.287; #3 -0.121; #4 -0.117

3 entries from above, ordered by “log2 vehicle/camptothecin viability”, low to high.
target gene	siRNA no.	log2 vehicle/camptothecin viability
LMTK2 (lemur tail kinase 2)	2	-0.335
LMTK2 (lemur tail kinase 2)	3	-0.113
LMTK2 (lemur tail kinase 2)	1	0.259

The results go on:
log2 vehicle/camptothecin viability, by target gene and reagent
CLCN3 (Cl-/H+ antiporter 3): #1 -0.407; #2 -0.077; #3 -0.126; #4 -0.389
GMNN (geminin DNA replication inhibitor): #1 -0.0709; #2 -0.152; #3 -0.216; #4 -1.05
SOX4 (SRY-box transcription factor 4): #1 -0.382; #2 -0.184; #3 -0.111; #4 -0.0935
RXRA (retinoid X receptor alpha): #1 -0.405; #2 -0.471; #3 -0.449; #4 -0.109
